Consider one compound from ChEMBL document CHEMBL4842350, “Discovery of a Novel Bromodomain and Extra Terminal Domain (BET) Protein Inhibitor, I-BET282E, Suitable for Clinical Progression” (J Med Chem, 2021).

Protein sequences, listed by entry. Tags and fused reporters are not part of them.
UniProt P11712, whole entry: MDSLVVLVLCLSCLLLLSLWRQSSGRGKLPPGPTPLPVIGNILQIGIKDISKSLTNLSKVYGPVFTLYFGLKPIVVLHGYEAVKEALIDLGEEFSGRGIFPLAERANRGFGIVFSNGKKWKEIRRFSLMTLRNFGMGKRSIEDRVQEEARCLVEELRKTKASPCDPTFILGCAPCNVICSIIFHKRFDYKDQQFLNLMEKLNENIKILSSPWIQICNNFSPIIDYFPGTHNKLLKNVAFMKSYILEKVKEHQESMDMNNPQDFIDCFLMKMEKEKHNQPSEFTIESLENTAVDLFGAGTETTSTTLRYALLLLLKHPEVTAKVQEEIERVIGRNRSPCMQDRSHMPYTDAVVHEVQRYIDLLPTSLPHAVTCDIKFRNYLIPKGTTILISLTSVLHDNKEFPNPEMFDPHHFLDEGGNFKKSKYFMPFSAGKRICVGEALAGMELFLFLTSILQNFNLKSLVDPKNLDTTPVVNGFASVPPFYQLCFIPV

The IC50 is the midpoint of a concentration-inhibition curve.

This assay has as its target Cytochrome P450 2C9 (Homo sapiens, UniProt P11712).

In the case of `CCNC(=O)C[C@@H]1N=C(c2ccc(Cl)cc2)c2cc(OC)ccc2-n2c(C)nnc21` [MOLIBRESIB], the half-maximal inhibitory concentration (IC50) was above 50 µM.
